Data: patent US7378433B2, “N-[4-(heteroarylmethyl)phenyl]-heteroarylamines” (Janssen Pharmaceutica, N.V., priority 1996, dated 2008)
Some results were stated once for a whole list of compounds, not compound by compound.

Tested on: ovariectomized rats
Assay: Vaginal keratinization test on ovariectomized rats
Assay type: in vivo, rat
Settings: per os once daily on day one, two and three; active dose = 50% of rats show complete suppression of estradiol undecylate induced keratinization

| Structure (SMILES) | lowest active dose (LAD) [mg/kg] |
| --- | --- |
| CCC(CC)C(c1ccc(Nc2nc3ccccc3o2)cc1)n1cncn1 (stereo not drawn) [Compound 56, N-[4-[2-ethyl-1-(1H-1,2,4-triazol-1-yl)butyl]phenyl]-2-benzoxazolamine] | ≤ 2.5 |
| CCC(CC)C(c1ccc(Nc2nc3ccccc3s2)cc1)n1cncn1 (racemic) [Compound 25, (±)-N-[4-[2-ethyl-1-(1H-1,2,4-triazol-1-yl)butyl]phenyl]-2-benzothiazol-amine] | ≤ 2.5 |
| CCC(CC)C(c1ccc(N(C)c2nc3ccccc3s2)cc1)n1cncn1 (racemic) [Compound 32, (±)-N-[4-[2-ethyl-1-(1H-1,2,4-triazol-1-yl)butyl]phenyl]-N-methyl-2-benzothiazolamine] | ≤ 2.5 |
